# Earlier results in patent publication US20080057111A1 (priority 2006, published 2008).
# At least one compound was matched to its structure with a doubt left.
# Tested on: severe acute respiratory syndrome (SARS) virus
# Details: recent report
smiles,measurement,value
O=C1c2cccc(O)c2C(=O)c2c(O)cc(CO)cc21 [aloeemodin],effect on SARS virus,inhibitory effect
